Measurements reported in US20200325187A1 (Genentech, published 2020).
Results are given in words; binding and its absence hold for the method and conditions named. Some binding calls cover weakened binding; strength is not graded here.

Sequences of proteins named here, by UniProt entry; tags and fusion partners are left off. Residues count along the entry.
UniProt P17948, residues 27-756: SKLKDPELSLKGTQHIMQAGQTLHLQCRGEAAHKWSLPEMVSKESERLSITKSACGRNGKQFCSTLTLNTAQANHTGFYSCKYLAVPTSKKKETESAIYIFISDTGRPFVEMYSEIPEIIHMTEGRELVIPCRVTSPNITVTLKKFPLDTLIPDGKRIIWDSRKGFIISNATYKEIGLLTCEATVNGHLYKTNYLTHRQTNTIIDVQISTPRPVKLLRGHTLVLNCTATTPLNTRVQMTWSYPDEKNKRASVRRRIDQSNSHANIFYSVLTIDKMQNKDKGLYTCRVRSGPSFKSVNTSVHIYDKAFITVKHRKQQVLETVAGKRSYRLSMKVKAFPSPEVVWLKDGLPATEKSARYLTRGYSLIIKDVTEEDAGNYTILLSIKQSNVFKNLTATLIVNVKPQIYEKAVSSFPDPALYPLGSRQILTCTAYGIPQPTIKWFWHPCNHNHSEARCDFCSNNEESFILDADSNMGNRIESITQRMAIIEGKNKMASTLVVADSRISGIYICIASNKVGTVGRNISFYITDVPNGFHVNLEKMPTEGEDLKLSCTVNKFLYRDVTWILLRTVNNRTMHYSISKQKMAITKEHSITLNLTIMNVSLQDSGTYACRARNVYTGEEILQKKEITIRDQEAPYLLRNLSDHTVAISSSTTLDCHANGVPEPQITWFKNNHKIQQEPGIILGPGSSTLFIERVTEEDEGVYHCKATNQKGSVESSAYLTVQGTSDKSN

Target: T1, VEGF-B (human, UniProt P49765-2 22-188, limits assumed)
T1 sequence (looked up): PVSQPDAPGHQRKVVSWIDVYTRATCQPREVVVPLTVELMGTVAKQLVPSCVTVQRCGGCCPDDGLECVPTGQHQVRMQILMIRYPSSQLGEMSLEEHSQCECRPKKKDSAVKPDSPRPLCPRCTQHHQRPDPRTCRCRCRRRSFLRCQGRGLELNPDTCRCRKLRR
Test: plate ELISA, growth factor coated

- binding: binds
Substance: Flt-1 (from UniProt P17948 27-756) (receptor)
